The campaign covered roughly 360,000 compounds. About 7,500 (2.1%) were called active. The shares of active, inactive and inconclusive entries below differ from those in the screen. The call rests on the fitted dose curve; in most records, active means well fitted inhibition curve with a large enough effect; inconclusive means small, poorly fitted or top-dose-only effect, or effect the other way; inactive means flat fitted curve, though single readings scatter. Where the call is inconclusive, the potency comes from a doubtful curve fit.
Experiment: Nrf2 qHTS screen for inhibitors; further: nearly all actives have a fitted effect of over 60% in size
Settings: A549 ARE-Fluc reporter, luciferase luminescence, 18-24 h; series mostly up to 46 µM
Summary of the method: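 Nrf2 activity is the BugLite luminescence, read 15 min after reagent at room temperature, following CellTiter-Fluor cytotoxicity readout (30 min, 37C). Compound titrations were applied for 18-24 h to 5000 A549 ARE_Fluc cells/well in 5% FBS OPTI-MEM.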
Potency means the concentration at half of the fitted maximal effect.

| SMILES | Potency |
| --- | --- |
| Cc1ccc(-c2csc(NC(=O)C3=COCCO3)n2)cc1 | inconclusive: 29.1 µM [falling, single point] |
| CC(C)c1ccc(-c2cc(C(=O)N3CCOCC3)c3cc(Br)ccc3n2)cc1 | inconclusive: 3.66 µM [activator, single point] |
| CCOC(=O)C1=C(c2ccccc2)NC(SCC(=O)NC2CCCCC2)=C(C#N)C1c1ccco1 (configuration not stated) | inconclusive: 29.1 µM [falling, single point] |
| CCc1ccc2oc(-c3ccc(OC)cc3)cc(=Nc3cccc(C(=O)O)c3)c2c1 | inconclusive: 5.17 µM [activator, partial curve] |
| Cc1cc(NCCCn2ccnc2)n2nc(-c3ccc(F)cc3)cc2n1 | inconclusive: 32.6 µM [activator, single point] |
| C=CCn1c(SCC(=O)N(CC)C2CCS(=O)(=O)C2)nc2sc3c(c2c1=O)CCC3 (configuration not stated) | inconclusive: 18.4 µM [falling, single point] |
| C=CCCC(=O)N(C)CCO | inactive |
| CCC1CCc2nc3sc(C(=O)Nc4cccc(F)c4)c(N)c3cc2C1 (configuration not stated) | inactive |
| COc1cccc2sc3ccc(C#CC4(O)CCCCC4)cc3c(=O)c12 | inconclusive: 16.4 µM [activator, partial curve] |
| COc1ccccc1Nc1ncnc2c1oc1ccccc12 | inconclusive: 13 µM [activator, partial curve] |
| CC(=NNC(=S)N1CC2CCC(CC2)C1)c1cccc(C)n1 | inconclusive: 5.17 µM [falling, partial curve, poor fit] |
| CCOCCn1c(SCc2ccc(C)cc2)nc2c1c(=O)[nH]c(=O)n2C | inconclusive: 0.326 µM [falling, full curve, poor fit] |
| C(=N\Nc1ccccc1)/c1nc2ccccc2s1 | inconclusive: 20.6 µM [activator, single point] |
| O=C(N/N=C/c1ccccc1)c1ccc(OCc2ccccc2)cc1 | inactive |
| Cc1cccc(-c2nc3c4c(-c5ccccc5)c(-c5ccccc5)oc4ncn3n2)c1 | inactive |
| COc1cc(C(=O)OCC(=O)NC2CCCCC2)cc(OC)c1OC | inactive |
| Cc1cccc(NC(=O)Cn2cc(S(=O)(=O)N3CCCC3)c(S(=O)(=O)N3CCCC3)c2)c1C | inconclusive: 18.4 µM [activator, single point] |
| O=C(Nc1ccc(S(=O)(=O)C(F)F)cc1)c1ccc2c(=O)n3c(nc2c1)CCC3 | active: 14.6 µM |
| COc1ccc(CN2CCC(C(=O)Nc3ccc(Oc4cccnc4)cc3)CC2)c(C)c1C | inconclusive: 4.61 µM [falling, single point] |
| CCCn1c(CN(Cc2ccccc2)Cc2ccccc2)nc2c1c(=O)n(C)c(=O)n2C | inconclusive: 18.4 µM [falling, single point] |
| O=C(N=C1SC2CS(=O)(=O)CC2N1c1ccc(Cl)cc1Cl)C1CC1 (configuration not stated) | inactive |

| SMILES | Potency |
| --- | --- |
| NS(=O)(=O)c1cc(C(=O)OCC(=O)Nc2ccccc2[N+](=O)[O-])ccc1Cl | inactive |
| Cc1cc(C)c(NC(=O)NC(=O)c2cccc(F)c2)c(C)n1 | inconclusive: 20.6 µM [activator, partial curve] |
| CCOC(=O)Cc1csc(NC(=O)/C=C/c2ccc(OC)cc2)n1 | inconclusive: 14.6 µM [falling, partial curve] |
| COc1ccc(C(=O)Nc2nc(C)cc(C)n2)cc1[N+](=O)[O-] | inconclusive: 16.4 µM [falling, single point] |
| Nc1ccc2nc3n(c(=O)c2c1)CCC3 | inconclusive: 6.51 µM [activator, single point] |
| CC(=O)c1ccc(NC(=O)Cn2c(=O)cc(C)c3c(C)nn(-c4cccc(F)c4)c32)cc1 | inconclusive: 5.8 µM [activator, partial curve, poor fit] |
| O=C1CCC[C@@H]2Cc3nc4ccccc4cc3[C@@H]3CCN1[C@H]23 | inconclusive: 20.6 µM [activator, partial curve, poor fit] |
| CCC1CN(C(=O)N2CCC(C(=O)NCc3ccccc3OC)CC2)c2ccccc2O1 (configuration not stated) | inconclusive: 18.4 µM [falling, single point] |
| CC1Cc2ccccc2N1C(=O)C1CCCN(S(=O)(=O)c2cccc3nsnc23)C1 (configuration not stated) | inconclusive: 23.1 µM [falling, partial curve, poor fit] |
| N#Cc1nc(COc2ccccc2)oc1NCCN1CCOCC1 | inactive |
| CC(C)C[C@@H](CN)NC(=O)c1nc[nH]c1C(=O)N[C@@H](CC(C)C)C(=O)CNC[C@H](C)NC(=O)c1nc[nH]c1C(=O)N[C@@H](CC(=O)O)C(=O)O | inactive |
| Cc1ccccc1C(=O)Nc1ccc(S(=O)(=O)N2CCC(c3nc4ccccc4s3)CC2)cc1 | inactive |
| COC(=O)Cc1csc(NC(=O)c2ccc3ncsc3c2)n1 | inconclusive: 4.61 µM [activator, partial curve, poor fit] |
| Cc1sc(-n2c(C)cc(/C=N/n3cnnc3)c2C)c(C#N)c1C | active: 14.6 µM |
| C=CCN1N=C(c2ccc(NC(=O)c3ccccc3)cc2)CSC1=O | inconclusive: 4.11 µM [falling, full curve] |
| CC(=O)Nc1ccc(SCC(=O)c2cc(C)n(-c3ccccc3F)c2C)cc1 | inconclusive: 2.91 µM [activator, partial curve] |
| Cc1cccc(NC(=O)c2cnc3sc(N4CCCC4)nn3c2=O)c1C | inconclusive: 29.1 µM [activator, single point] |
| N#CC1(Cc2ccccc2Cl)c2ccccc2C=CN1C(=O)c1ccccc1 (configuration not stated) | inconclusive: 18.4 µM [falling, single point] |
| O=C(c1ccccc1)c1c[nH]c2cc3c(cc2c1=O)OCCO3 | inconclusive: 9.2 µM [activator, partial curve] |
| Cc1cc(NC2CCCCC2)nc(-c2ccccc2O)n1 | inconclusive: 18.4 µM [activator, partial curve, poor fit] |
| COc1ccccc1C(=O)Nc1nnc(S(=O)(=O)N2CCOCC2)s1 | inconclusive: 13 µM [activator, partial curve, poor fit] |

Ordered by formula weight (low to high): 9 of the compounds above

| SMILES | Potency |
| --- | --- |
| Cc1cc(NC2CCCCC2)nc(-c2ccccc2O)n1 | inconclusive: 18.4 µM [activator, partial curve, poor fit] |
| Cc1sc(-n2c(C)cc(/C=N/n3cnnc3)c2C)c(C#N)c1C | active: 14.6 µM |
| COC(=O)Cc1csc(NC(=O)c2ccc3ncsc3c2)n1 | inconclusive: 4.61 µM [activator, partial curve, poor fit] |
| COc1ccccc1C(=O)Nc1nnc(S(=O)(=O)N2CCOCC2)s1 | inconclusive: 13 µM [activator, partial curve, poor fit] |
| N#CC1(Cc2ccccc2Cl)c2ccccc2C=CN1C(=O)c1ccccc1 (configuration not stated) | inconclusive: 18.4 µM [falling, single point] |
| CC(=O)Nc1ccc(SCC(=O)c2cc(C)n(-c3ccccc3F)c2C)cc1 | inconclusive: 2.91 µM [activator, partial curve] |
| NS(=O)(=O)c1cc(C(=O)OCC(=O)Nc2ccccc2[N+](=O)[O-])ccc1Cl | inactive |
| CC1Cc2ccccc2N1C(=O)C1CCCN(S(=O)(=O)c2cccc3nsnc23)C1 (configuration not stated) | inconclusive: 23.1 µM [falling, partial curve, poor fit] |
| Cc1ccccc1C(=O)Nc1ccc(S(=O)(=O)N2CCC(c3nc4ccccc4s3)CC2)cc1 | inactive |

Reference: PubChem BioAssay AID504444 (National Center for Advancing Translational Sciences (NCATS), 2011)
